The text below walks through data of PubChem BioAssay AID2685 (National Center for Advancing Translational Sciences (NCATS), 2010).

This is one part of the list. Further columns of the screen follow, without active or inactive calls. Compounds called inactive in the main read-out are mostly missing here. The note in brackets gives the kind of curve behind each potency; many fits are weak.

The nature of this test: qHTS Assay for Lipid Storage Modulators in Drosophila S3 Cells.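 On cell number change: cells counted by Cell Tracker Red CMTPX staining in the red channel.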 To be noted: BODIPY lipid droplet fluorescence, 18-24 h; for cell number change: measured here: cell count max response, cells fed with added oleic acid. In short, it runs like this: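 Drosophila S3 cells got compounds at several concentrations plus oleic acid (400 uM solution). Laser-scanning cytometry with 488 nm excitation read lipid droplets at 500-530 nm and cells at 575-640 nm. Percent activity was relative to 20 uM Triacsin C.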

The mark [1] stands for this setting: measured here: lipid fluorescence (Fed channel) AC50, cells fed with added oleic acid.
The mark [2] stands for this setting: measured here: cell number channel AC50, cells fed with added oleic acid.

By AC50 is commonly meant the concentration at which the activity in the assay is half-maximal. Low readings indicate activity at low concentration, high ones activity only at high concentration. As for `COc1ccc(Br)cc1C(=O)Nc1cccc(NC(=O)c2ccco2)c1`, the cell number change is -8.92%. Also, under setting [1], the AC50 is 18.4 µM [rising, single point]. Turning to `CC(C)(C)n1nnc(CCc2nnn(C(C)(C)C)n2)n1`, the cell number change is -3.47%. For the same compound, the AC50 under setting [1] was 16.4 µM [falling, single point]. On to `CNC(=O)NC(=O)C(C)OC(=O)c1oc2ccccc2c1CSc1ccc(Cl)cc1` (stereo unspecified), for which the cell number change was 25.1%. Moreover, the AC50 under setting [1] was 25.9 µM [falling, single point]. In the case of `Oc1ccc(/C=N/n2c3ccccc3c3ccccc32)cc1`, the cell number change is -23.7%.

With `O=C(NCCN1C(=O)S/C(=C\c2ccccc2)C1=O)c1cc(S(=O)(=O)N2CCOCC2)c(Cl)cc1Cl`, the cell number change is -8.54%. Besides, the AC50 under setting [1] was 32.6 µM [falling, single point]. As to `COC(=O)c1cc(OC)c(OC)cc1NC(=O)c1ccc(OC)c(OC)c1`, the cell number change is -9.72%. Also, the AC50 under setting [2] was 0.231 µM [rising, partial curve]. Further, the AC50 under setting [1] is 3.26 µM [rising, full curve]. As for `C/C(=N\NC(N)=S)c1ccc(Cl)s1`, the cell number change came out at 0.656%. The AC50 under setting [1] was 29.1 µM [falling, single point]. `CC1=C(C(=O)OCc2ccccc2)N2C(=O)[C@@H](NC(=O)COc3ccccc3)[C@H]2SC1`: the cell number change stood at 22.3%.

For the compound `COc1ccc(C(=O)C(C)OC(=O)c2sc(C)nc2C)cc1` (stereo unspecified), the cell number change is -23%. The AC50 under setting [1] is 1.46 µM [falling, partial curve].

For the compound `CN(CC(=O)Nc1ccc(F)cc1)C(=O)COC(=O)C1CCN(c2ccc(C(F)(F)F)cn2)CC1`, the cell number change came out at 6.43%.

Take `CCOC(=O)c1sc(=S)n(C)c1C`: the cell number change is -33.2%. Further, the AC50 under setting [2] was 1.46 µM [falling, full curve]. As to `O=C(CN(Cc1ccc(Cl)cc1)S(=O)(=O)c1ccccc1)NCC1CCCO1` (stereo unspecified), the cell number change is -13.9%. Also, the AC50 under setting [1] was 29.1 µM [rising, single point]. `Cc1ccccc1-c1nc(CS(=O)(=O)CC(=O)NCCc2ccccc2)c(C)o1`: the AC50 under setting [1] is 6.51 µM [falling, single point]. Still for that read-out and setting: the figure for `O=C(Nc1nccs1)c1ccc(-c2ccc(F)c(Cl)c2)o1` is 6.51 µM [falling, partial curve]. With `CCOC(=O)c1cnc2c(c(C3CC3)nn2C)c1N1CCOCC1`, the cell number change turned out to be 22.3%. The AC50 under setting [2] was 0.651 µM [falling, single point]. For the compound `CN(C)C(CNC(=O)CCc1c[nH]c2ccccc12)c1ccccc1` (stereo unspecified), the cell number change stood at 19.1%. The AC50 under setting [1] is 2.91 µM [rising, single point]. For `COc1ccc2[nH]c(=O)c(CN(C(=O)c3cccnc3)c3ccccc3OC)cc2c1`, the cell number change was 118%. Besides, the AC50 under setting [2] is 5.17 µM [rising, partial curve]. On to `O=C(CSc1nc2ccccc2c(=O)n1-c1ccccc1Cl)Nc1cccc(S(=O)(=O)N2CCOCC2)c1`, for which the cell number change is -19.8%. The AC50 under setting [1] was 0.731 µM [falling, full curve, poor fit]. Consider `Cn1cc(Cl)c(C(=O)Nc2nc3ccccc3s2)n1`, for which the AC50 is, setting by setting: under setting [2], 1.3 µM [rising, full curve, poor fit]; under setting [1], 6.51 µM [rising, single point]. In the case of `COc1ccc(C(=O)Nc2ccc(N3CCN(C(=O)c4ccccc4)CC3)cc2)cc1[N+](=O)[O-]`, the cell number change is -1.23%. As to `O=C(CN1CCN(S(=O)(=O)c2ccccc2)CC1)Nc1ccc(N2CCOCC2)cc1`, the cell number change amounted to 17.2%. Moreover, under setting [1], the AC50 was 11.6 µM [rising, partial curve, poor fit]. `Cc1ccc(Cl)cc1NC(=S)N(Cc1cccnc1)Cc1ccccc1Cl`: the cell number change turned out to be 54.5%. For the same compound, under setting [2], the AC50 is 29.1 µM [rising, single point].

Consider `FC(F)(F)c1cc(-c2ccccc2)nc(NCC2CCCO2)n1` (stereo unspecified), for which the cell number change is -48.3%. The AC50 under setting [2] is 8.2 µM [falling, partial curve, poor fit]. Further, under setting [1], the AC50 is 29.1 µM [falling, partial curve, poor fit].

For the compound `Cc1cccc(C)c1OCC(=O)NNC(=O)Nc1ccc(Cl)cc1`, the AC50 under setting [1] is 0.58 µM [falling, single point]. Consider `CCN(CC)S(=O)(=O)c1ccc(Cl)c(NC(=O)COc2ccc(OC)cc2[N+](=O)[O-])c1`, for which the cell number change was -3.66%. On to `CN(C)C(=O)c1ccc(-n2cccn2)nc1`, for which the AC50 under setting [1] was 3.66 µM [rising, partial curve].

As for `O=C(NC1CCCCC1)C(c1ccco1)N(Cc1cccnc1)C(=O)C1COc2ccccc2O1` (stereo unspecified), the AC50 under setting [2] is 2.06 µM [rising, partial curve]. For the compound `CC1(C)CC(=O)C(CC2=C(O)CC(C)(C)CC2=O)C(=O)C1`, the cell number change stood at 11.9%. Under setting [2], the AC50 is 0.082 µM [rising, full curve]. On to `COc1cnn(-c2cccc(C)c2)c(=O)c1Cl`, for which the cell number change is -0.985%. For the same compound, the AC50 under setting [1] is 0.651 µM [rising, single point]. In the case of `COc1ccc(C)cc1NC(=O)CSc1nnc2ccc(-c3ccncc3)nn12`, under setting [2], the AC50 was 0.0461 µM [rising, full curve, poor fit]. With `Cc1ccccc1NS(=O)(=O)c1cc(C(=O)NCCSC2CCCCC2)ccc1C`, the cell number change is -15.1%. The AC50 under setting [1] is 16.4 µM [falling, single point].

Consider `c1ccc(CSc2nnnn2-c2cccc3ccccc23)nc1`, for which the cell number change was 17.7%. The half-maximal activity concentration (AC50) under setting [1] was 1.46 µM [rising, partial curve]. Consider `COc1ccccc1C(=O)Nc1cccc(-c2cn3ccsc3n2)c1`, for which, under setting [1], the AC50 is 0.00461 µM [rising, full curve, poor fit]. With `CCOc1cc(CNC(C)C)c(Cl)cc1OCC(=O)NCCc1ccccc1`, under setting [1], the AC50 is 6.51 µM [rising, single point]. Consider `COc1ccc(-n2c(C)cc(C(=O)COC(=O)Cc3n[nH]c(=O)c4ccccc34)c2C)cc1`, for which the cell number change was -37.3%. Also, the AC50 under setting [2] was 16.4 µM [falling, single point]. The half-maximal activity concentration (AC50) under setting [1] is 20.6 µM [falling, partial curve, poor fit]. As to `Cn1c(=O)c2c(ncn2CC(=O)NCc2cccnc2)n(C)c1=O`, the cell number change is -0.707%. With `COc1cc(NC(=O)c2cccs2)c(C(=O)OCC(=O)c2cc(C)n(-c3ccccc3)c2C)cc1OC`, the cell number change was 16.2%. Besides, the AC50 under setting [1] was 0.517 µM [rising, single point]. Consider `Cc1occc1C(=O)N/N=C/c1cccc2ccccc12`, for which the cell number change was -2.86%. Moreover, the AC50 under setting [1] was 6.51 µM [rising, single point].

On to `O=C(COc1ccccc1)N=C1SC2CS(=O)(=O)CC2N1c1ccccc1F` (stereo unspecified), for which the cell number change worked out at 5.37%. The AC50 under setting [1] was 6.51 µM [falling, single point]. Consider `CC1CCN(CCOCCOc2ccccc2Br)CC1`, for which the cell number change is -4.93%. Besides, the AC50 under setting [1] was 0.501 µM [falling, full curve, poor fit].

In the case of `CC(=O)Nc1cccc(C(=O)OC(C)C(=O)Nc2ccc(S(=O)(=O)N3CCCC3)cc2)c1` (stereo unspecified), the cell number change was -20%.

As to `Fc1ccc(-n2c(Cn3nnc4ccccc43)n[nH]c2=S)cc1`, the concentration at half-maximal activity (AC50) under setting [1] was 0.00411 µM [falling, full curve, poor fit]. As for `CCOC(=O)/C=C/[C@H]1CCc2cccc(C)c2O1`, the cell number change was -33.4%. Moreover, the half-maximal activity concentration (AC50) under setting [2] was 0.164 µM [falling, full curve, poor fit]. The AC50 under setting [1] is 0.231 µM [falling, partial curve, poor fit]. In the case of `Cc1cccc(Cl)c1NC(=S)NN`, the cell number change was 6.81%. Moreover, the AC50 under setting [2] is 6.51 µM [rising, single point]. Further, under setting [1], the AC50 is 6.51 µM [rising, single point]. For `Cc1sc(NC(=O)c2cccc(N3C(=O)CCC3=O)c2)nc1-c1ccccc1`, the cell number change was 34.6%. Further, under setting [2], the AC50 was 1.84 µM [rising, partial curve, poor fit]. Further, the AC50 under setting [1] is 2.91 µM [rising, full curve].

Take `O=C(NCCCN1CCCC1=O)c1ccc(NS(=O)(=O)c2ccccc2)cc1`: the cell number change is -14.7%. Also, the AC50 under setting [2] is 0.13 µM [falling, full curve, poor fit].

`CCn1c(SCC(=O)Nc2cc(OC)ccc2OC)nc2c(c1=O)SCC2`: the cell number change came out at 19.9%. The AC50 under setting [2] was 0.146 µM [rising, single point]. Turning to `CCOc1ccccc1OCC(=O)Nc1ccccc1C(=O)NC1CC1`, the cell number change amounted to 44.7%. Also, the AC50 under setting [2] was 29.1 µM [rising, single point].

For `CCn1c(SCC(=O)NC2CCCC2)nnc1-c1ccco1`, the cell number change was 15.8%. Regarding `O=C(NC(NC(=O)c1c(F)cccc1F)c1ccc([N+](=O)[O-])cc1)c1c(F)cccc1F`, the cell number change is 223%. Under setting [2], the AC50 was 29.1 µM [rising, partial curve]. For the compound `Cc1ccccc1Nc1nc(-c2sc(NC(=O)c3ccccc3)nc2C)cs1`, the cell number change turned out to be 70%. For the compound `COc1cccc(OCc2cc(/C=N/n3cncn3)ccc2OC)c1`, the cell number change is -7.26%. Moreover, under setting [1], the AC50 was 4.11 µM [rising, single point]. As for `C=CCn1c(=O)/c(=C/c2cc(OC)c(OC)c(OC)c2)s/c1=C(/C#N)c1nc2ccccc2n1C`, the cell number change was 22%. Under setting [1], the AC50 is 0.58 µM [rising, single point].

Turning to `COc1ccc(CNc2cc(C)ccc2C)c(OC)c1OC`, the AC50 is 0.058 µM [rising, full curve, poor fit] under setting [2] and 0.082 µM [rising, full curve, poor fit] under setting [1]. Regarding `COc1cccc(-c2nnc(SCC(=O)Nc3cc(C)on3)n2C)c1`, the AC50 by setting is: under setting [2], 6.51 µM [rising, single point]; under setting [1], 6.51 µM [rising, single point]. Consider `O=C(NNC(=O)c1ccccc1[N+](=O)[O-])Nc1ccccc1C(F)(F)F`, for which the cell number change amounted to 53.2%. Also, the AC50 under setting [2] is 29.1 µM [rising, single point]. Besides, under setting [1], the AC50 was 18.4 µM [rising, single point].

Consider `COc1ccc(CCN(C)C(=O)Cn2c(=O)oc3ccccc32)cc1OC`, for which the cell number change worked out at 20%. Consider `c1ccc2c(c1)nc(N1CCOCC1)c1c3ccccc3[nH]c21`, for which the cell number change is -3.94%. In addition, the AC50 under setting [1] is 0.326 µM [rising, partial curve]. As to `C=CCN1C(c2ccccc2)=CS/C1=C(\C#N)c1nnc2n1CCCCC2`, the cell number change is -19.3%. For the same compound, the AC50 under setting [1] is 16.4 µM [falling, single point]. As to `CC[C@H](C)[C@H](NC(N)=O)C(=O)Nc1ccccc1F`, the cell number change is -79.2%. Further, the AC50 under setting [1] is 0.116 µM [rising, partial curve, poor fit].

For the compound `O=C(Nc1ccc(S(=O)(=O)NCc2ccccc2)cc1)c1ccccc1[N+](=O)[O-]`, the cell number change was -2.72%. Besides, the AC50 under setting [2] is 0.00461 µM [rising, full curve, poor fit]. Also, under setting [1], the AC50 is 8.2 µM [rising, partial curve].
